The other results are listed elsewhere or left out.

Chains of the proteins cited; added tags and fusions are not shown.
UniProt Q0JBA9, entry or part of it: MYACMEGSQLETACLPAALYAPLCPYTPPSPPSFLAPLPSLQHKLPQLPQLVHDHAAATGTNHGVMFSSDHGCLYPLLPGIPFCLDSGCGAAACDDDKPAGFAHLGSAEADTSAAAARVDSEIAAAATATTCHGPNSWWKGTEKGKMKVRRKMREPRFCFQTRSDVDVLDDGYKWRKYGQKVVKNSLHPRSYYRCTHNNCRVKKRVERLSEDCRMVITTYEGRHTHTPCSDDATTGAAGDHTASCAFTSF

42 sequences from publication PMC7819943, “Rice protein-binding microarrays: a tool to detect cis-acting elements near promoter regions in rice” can be followed below.

For this assay, the target named is OsWRKY34 (Oryza sativa, UniProt Q0JBA9 1-250). Nature of the assay: protein-binding microarray (RPBM); PBS, 2% BSA, 51.3 ng/ul salmon testes DNA, 50 uM zinc acetate, 200 nM TF, 25 C, 1 h; high values mean tight binding. The note with it: protein: recombinant; tags: N-terminal polyhistidine and DsRed monomer fusion (pET32a); label: CyDye5-dUTP incorporated in the synthesized complementary strand; 3' TTTTT single-stranded linker to array surface; dsDNA, one strand shown. A digest of the protocol:
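Per-feature fluorescence intensity (arbitrary units), read on an Axon 4000B scanner, is the binding signal. Transcription factors carrying an N-terminal polyhistidine tag and DsRed fusion were expressed in E. coli BL21-CodonPlus and purified on Ni–NTA. A custom Agilent array, made double-stranded by primer extension with Cy5-dUTP and blocked with 2% BSA, was incubated with 200 nM protein in PBS, 2% BSA, salmon testes DNA and 50 µM zinc acetate at 25 °C for 1 h and then washed.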
For the sequence “TAATGTTTTCTTTCATACTATTGTGAAATTCATCGTTTTGCGGAGTCACCTAGTGCAG”, the binding signal was 8270 fluorescence intensity (a.u.).

Consider “TGTTTCGGCGCAAGAGGTCGCCTACCTGCACAAGTTCTGTCGGAGTCACCTAGTGCAG”, for which the binding signal is 8170 fluorescence intensity (a.u.). With “TTTTCCTTAGTCAAAGTTATATATGTTTGACTAAATTTATCGGAGTCACCTAGTGCAG” the figure was 18000 fluorescence intensity (a.u.).

As for “GGGATGGCGGTTCTCATTTTCTCAAGTGATAGAATCCAATCGGAGTCACCTAGTGCAG”, the binding signal was 8830 fluorescence intensity (a.u.).

Consider “GAGTTTTTCCATACTACGTTTCACCACTCGTCTTATTCAACGGAGTCACCTAGTGCAG”, for which the binding signal is 11800 fluorescence intensity (a.u.). Under “AGTTTTGTCACATGATGGATTTCGATGCCACACTAATCTTCGGAGTCACCTAGTGCAG” stands 9910 fluorescence intensity (a.u.); under “ATTCACCATCGTTGTTTCTTTGTGATCTAATACGCGGACCCGGAGTCACCTAGTGCAG”, 8630 fluorescence intensity (a.u.); under “AATATGGTGCATGGGCGTTGGTTAGTTTGGTTGGGTTGGTCGGAGTCACCTAGTGCAG”, 11200 fluorescence intensity (a.u.). With “CTGTTTGAACAAGTGCACGTACGTACTCCGCTTATTAGTTCGGAGTCACCTAGTGCAG” the figure was 8360 fluorescence intensity (a.u.); with “GTGGTGTGTATATGGTGGTAGTTGCACAACAATAGTGAGACGGAGTCACCTAGTGCAG”, 8510 fluorescence intensity (a.u.). With “GCATTTACGTTCAGTCTGGCCTTGTACTATACATTGCACCCGGAGTCACCTAGTGCAG” the figure was 9160 fluorescence intensity (a.u.); with “GCTCGCAGTCTCGCCCACCGCCACCGCCACTGCACTCCGGCGGAGTCACCTAGTGCAG”, 9250 fluorescence intensity (a.u.). As for “AATTATTTGTTCTGTATTGTTTTGTTTTACTATATCTTCTCGGAGTCACCTAGTGCAG”, the binding signal was 11200 fluorescence intensity (a.u.). Consider “TGCTTTGTCCACTTCATCGGTTAGTTCAACCATCCATTTCCGGAGTCACCTAGTGCAG”, for which the binding signal was 12900 fluorescence intensity (a.u.). With “CATCCTTCACAGCTGGCCATTTATTATAGAGTAATTTACACGGAGTCACCTAGTGCAG” the figure was 10500 fluorescence intensity (a.u.); with “CAACTGACGGCCCAGCCCGCTAGCCGCCTCCGCAAGTCCGCGGAGTCACCTAGTGCAG”, 8040 fluorescence intensity (a.u.); with “CATAAACTTATTCCTTTCTCTTTCTTTTCTTTTGAAATCACGGAGTCACCTAGTGCAG”, 8280 fluorescence intensity (a.u.).

“AATCCATAATTAGTAAATATTTACTGTAGCACCATATTGTCGGAGTCACCTAGTGCAG”: the binding signal was 9810 fluorescence intensity (a.u.).

With “CATGCCTCATCGTTGCTCCATACTACCACACCACACCTCACGGAGTCACCTAGTGCAG”, the binding signal is 11600 fluorescence intensity (a.u.).

Regarding “CTCTCTGCCATCTCATCCACAGTGACCTCTCTCTCCAAGACGGAGTCACCTAGTGCAG”, the binding signal was 8600 fluorescence intensity (a.u.).

As to “GAACCCGCCGCCGCCGCCGCCGCCTCCGCCTGTAGCGAGACGGAGTCACCTAGTGCAG”, the binding signal was 8350 fluorescence intensity (a.u.).

Turning to “ATTCGTCTGAAAATTGTGTTTCACATGCGTCATTTCTCTACGGAGTCACCTAGTGCAG”, the binding signal is 8080 fluorescence intensity (a.u.).

For “GTTAGTAACTTATTTACTCATAGCTGATCGACTTAGTAATCGGAGTCACCTAGTGCAG”, the binding signal is 8140 fluorescence intensity (a.u.). With “ATTGGTCCACGCGCTCACACGAGTTTACACTTATGCCCCTCGGAGTCACCTAGTGCAG” the figure was 9710 fluorescence intensity (a.u.). For “TTTTTCTCTCCCGATCGATCGCGAATCCCTTTCCGTTGGCCGGAGTCACCTAGTGCAG”, the binding signal was 9350 fluorescence intensity (a.u.).

On to “TTGGCAAATTGACCGTGATGGGTTCTTTGTTTCCGTTTGCCGGAGTCACCTAGTGCAG”, for which the binding signal was 8390 fluorescence intensity (a.u.). Under “TTAGTATGTCTAGATTTGTTGTATTAGGAAACGTCTAATCCGGAGTCACCTAGTGCAG” stands 9040 fluorescence intensity (a.u.). Under “ATCACATAACACACTCGCAATCTCACATGGTAACACTACCCGGAGTCACCTAGTGCAG” stands 8490 fluorescence intensity (a.u.); under “GCCTCGAATCTAAATACTCCTACATAGGTTTCATACTTTCCGGAGTCACCTAGTGCAG”, 10000 fluorescence intensity (a.u.); under “ATTTTCCTATGAGTCATCAGCTGTTGACCAAACGATGAGACGGAGTCACCTAGTGCAG”, 8740 fluorescence intensity (a.u.). Under “GCATCGAAATACTATTTTCGTTCATTGGTATGTTCTCATTCGGAGTCACCTAGTGCAG” stands 9860 fluorescence intensity (a.u.); under “AAATTACCGCCGTTACACTATATTTACAATGTAAATACACCGGAGTCACCTAGTGCAG”, 9370 fluorescence intensity (a.u.).

In the case of “ATATCCAGGTGTGTATTCTTGCTTGTGCTTTTGATGTGCCCGGAGTCACCTAGTGCAG”, the binding signal was 8560 fluorescence intensity (a.u.). Under “CTAGCTACCTTTACCTTTTTCGATCTCTTCTCTTCATCTCCGGAGTCACCTAGTGCAG” stands 10200 fluorescence intensity (a.u.); under “CAAAATGTTTGACATCGTTGACTTTTTAGCACATGTTTGACGGAGTCACCTAGTGCAG”, 15300 fluorescence intensity (a.u.); under “CATACATGTTACATCTCATCTCACAGGCAGGCGCTCGTACCGGAGTCACCTAGTGCAG”, 8270 fluorescence intensity (a.u.).

In the case of “AATGTGAGGGTTGGGTCCAAAAAGGTTTGGGCTGAAATTTCGGAGTCACCTAGTGCAG”, the binding signal is 12100 fluorescence intensity (a.u.). With “TTTCTTTTCTTTTCTTTTTTTTTTTGGGGCAACTGTTAGACGGAGTCACCTAGTGCAG” the figure was 10500 fluorescence intensity (a.u.); with “TGATTGCTTCTCTGTTCCCATTCCCTTTCTACGCACACTGCGGAGTCACCTAGTGCAG”, 8800 fluorescence intensity (a.u.); with “ACTCTCTCCCGGCAATAATTGGTGACTGCTTCCACTTTTACGGAGTCACCTAGTGCAG”, 9380 ± 810 fluorescence intensity (a.u.). Under “CCCACACGCATCTCCCAACTCGACTCGACCCAACGTCCCACGGAGTCACCTAGTGCAG” stands 8240 fluorescence intensity (a.u.).

Turning to “CCCTTGTCATCGTCATCCGATTGTGCCTTCCCTGATTTTCCGGAGTCACCTAGTGCAG”, the binding signal was 8430 fluorescence intensity (a.u.).
